Data: the supplement of paper PMC6411743
± gives the standard deviation of the averaged measurements. This is a selection; strong and weak results do not stand in their true shares.

Chains of the proteins cited; added tags and fusions are not shown. Lines headed by an entry give the natural chain unless they say otherwise; changes in a name come on top.
UniProt O94776: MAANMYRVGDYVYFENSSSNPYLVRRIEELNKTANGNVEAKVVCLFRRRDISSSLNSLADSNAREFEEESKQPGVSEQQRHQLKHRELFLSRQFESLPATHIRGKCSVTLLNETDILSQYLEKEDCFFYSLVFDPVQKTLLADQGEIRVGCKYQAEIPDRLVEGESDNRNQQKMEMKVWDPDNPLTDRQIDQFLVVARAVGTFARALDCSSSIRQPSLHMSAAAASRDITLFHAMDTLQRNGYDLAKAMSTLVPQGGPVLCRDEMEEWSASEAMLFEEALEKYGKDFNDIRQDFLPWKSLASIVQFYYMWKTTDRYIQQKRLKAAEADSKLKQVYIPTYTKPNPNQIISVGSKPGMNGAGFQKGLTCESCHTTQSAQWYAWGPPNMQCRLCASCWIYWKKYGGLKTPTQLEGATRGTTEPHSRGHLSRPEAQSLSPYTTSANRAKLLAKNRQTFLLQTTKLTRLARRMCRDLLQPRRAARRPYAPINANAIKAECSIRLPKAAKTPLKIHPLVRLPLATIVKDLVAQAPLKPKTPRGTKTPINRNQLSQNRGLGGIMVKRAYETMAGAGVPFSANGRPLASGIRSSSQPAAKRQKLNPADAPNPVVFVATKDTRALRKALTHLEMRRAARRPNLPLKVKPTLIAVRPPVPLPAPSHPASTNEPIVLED
UniProt O75475: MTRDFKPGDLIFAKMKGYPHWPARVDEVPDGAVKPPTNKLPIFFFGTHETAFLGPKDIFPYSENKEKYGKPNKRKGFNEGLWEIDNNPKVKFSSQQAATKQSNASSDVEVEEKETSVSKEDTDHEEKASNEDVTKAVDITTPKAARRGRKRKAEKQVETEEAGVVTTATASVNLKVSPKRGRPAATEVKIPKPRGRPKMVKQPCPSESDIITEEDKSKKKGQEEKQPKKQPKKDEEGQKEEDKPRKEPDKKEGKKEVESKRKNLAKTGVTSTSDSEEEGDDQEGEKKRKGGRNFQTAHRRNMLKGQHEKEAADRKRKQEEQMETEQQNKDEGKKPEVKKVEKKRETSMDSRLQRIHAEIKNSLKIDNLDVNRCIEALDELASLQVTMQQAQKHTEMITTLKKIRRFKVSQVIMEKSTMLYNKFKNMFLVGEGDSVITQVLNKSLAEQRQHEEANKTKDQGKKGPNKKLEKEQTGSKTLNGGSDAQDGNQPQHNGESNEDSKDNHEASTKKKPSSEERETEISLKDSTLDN
UniProt O75489, whole entry: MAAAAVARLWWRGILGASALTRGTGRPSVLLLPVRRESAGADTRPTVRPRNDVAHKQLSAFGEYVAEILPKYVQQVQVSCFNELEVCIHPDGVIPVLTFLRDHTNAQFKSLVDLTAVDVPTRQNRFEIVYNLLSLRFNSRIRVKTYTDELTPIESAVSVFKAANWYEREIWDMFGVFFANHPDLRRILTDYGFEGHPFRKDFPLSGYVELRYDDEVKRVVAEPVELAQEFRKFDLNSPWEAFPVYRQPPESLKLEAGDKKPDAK
UniProt O75113: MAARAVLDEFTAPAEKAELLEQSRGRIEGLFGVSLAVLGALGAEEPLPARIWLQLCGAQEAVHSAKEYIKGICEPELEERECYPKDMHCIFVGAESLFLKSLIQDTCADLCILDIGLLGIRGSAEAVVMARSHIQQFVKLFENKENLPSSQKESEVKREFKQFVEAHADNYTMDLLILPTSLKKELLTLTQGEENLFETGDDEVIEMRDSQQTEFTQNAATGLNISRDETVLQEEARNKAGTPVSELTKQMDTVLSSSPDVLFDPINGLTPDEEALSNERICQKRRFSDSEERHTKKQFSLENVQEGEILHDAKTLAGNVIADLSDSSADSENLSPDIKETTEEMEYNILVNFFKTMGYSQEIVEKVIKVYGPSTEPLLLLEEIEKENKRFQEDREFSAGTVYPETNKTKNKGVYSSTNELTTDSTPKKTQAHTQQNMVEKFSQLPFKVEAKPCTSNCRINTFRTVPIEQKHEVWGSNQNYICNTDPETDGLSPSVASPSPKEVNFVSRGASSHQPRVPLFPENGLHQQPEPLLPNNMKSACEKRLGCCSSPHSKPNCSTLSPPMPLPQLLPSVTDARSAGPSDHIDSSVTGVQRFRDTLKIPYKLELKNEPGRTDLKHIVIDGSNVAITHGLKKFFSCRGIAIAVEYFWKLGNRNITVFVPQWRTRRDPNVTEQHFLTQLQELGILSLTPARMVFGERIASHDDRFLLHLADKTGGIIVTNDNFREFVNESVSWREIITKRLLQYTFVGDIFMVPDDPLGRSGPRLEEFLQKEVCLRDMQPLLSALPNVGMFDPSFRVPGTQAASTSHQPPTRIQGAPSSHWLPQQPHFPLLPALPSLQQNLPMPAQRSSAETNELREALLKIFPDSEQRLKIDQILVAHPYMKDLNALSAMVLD
UniProt O95167, whole entry: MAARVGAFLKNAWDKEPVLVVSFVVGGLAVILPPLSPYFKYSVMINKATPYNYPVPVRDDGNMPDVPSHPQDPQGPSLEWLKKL
UniProt O60268: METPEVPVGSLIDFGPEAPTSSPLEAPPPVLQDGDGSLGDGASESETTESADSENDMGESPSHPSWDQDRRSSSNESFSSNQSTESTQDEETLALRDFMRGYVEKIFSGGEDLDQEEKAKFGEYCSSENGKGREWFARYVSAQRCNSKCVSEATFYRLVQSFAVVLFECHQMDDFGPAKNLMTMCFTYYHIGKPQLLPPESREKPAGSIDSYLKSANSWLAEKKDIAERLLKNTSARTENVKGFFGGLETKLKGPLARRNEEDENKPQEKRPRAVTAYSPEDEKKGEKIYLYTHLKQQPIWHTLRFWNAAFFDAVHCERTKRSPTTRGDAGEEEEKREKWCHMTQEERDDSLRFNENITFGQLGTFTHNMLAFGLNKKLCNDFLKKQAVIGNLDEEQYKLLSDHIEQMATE
UniProt O75380, whole entry: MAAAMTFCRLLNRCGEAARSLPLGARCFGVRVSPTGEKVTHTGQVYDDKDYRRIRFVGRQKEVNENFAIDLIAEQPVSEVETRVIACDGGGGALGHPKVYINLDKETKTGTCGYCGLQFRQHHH
UniProt O75688: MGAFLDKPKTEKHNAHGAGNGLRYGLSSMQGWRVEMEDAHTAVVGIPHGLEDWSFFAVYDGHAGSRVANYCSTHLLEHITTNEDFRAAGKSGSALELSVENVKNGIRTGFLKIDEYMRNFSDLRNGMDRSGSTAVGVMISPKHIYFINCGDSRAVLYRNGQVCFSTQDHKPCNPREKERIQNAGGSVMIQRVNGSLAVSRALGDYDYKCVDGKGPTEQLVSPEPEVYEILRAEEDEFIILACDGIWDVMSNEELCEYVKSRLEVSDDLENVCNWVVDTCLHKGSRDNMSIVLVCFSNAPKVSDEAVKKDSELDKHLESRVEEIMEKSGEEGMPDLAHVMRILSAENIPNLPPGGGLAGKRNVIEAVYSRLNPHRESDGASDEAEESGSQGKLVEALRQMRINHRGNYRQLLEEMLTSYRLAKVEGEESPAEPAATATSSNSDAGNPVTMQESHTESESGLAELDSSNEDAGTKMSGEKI
UniProt O95376: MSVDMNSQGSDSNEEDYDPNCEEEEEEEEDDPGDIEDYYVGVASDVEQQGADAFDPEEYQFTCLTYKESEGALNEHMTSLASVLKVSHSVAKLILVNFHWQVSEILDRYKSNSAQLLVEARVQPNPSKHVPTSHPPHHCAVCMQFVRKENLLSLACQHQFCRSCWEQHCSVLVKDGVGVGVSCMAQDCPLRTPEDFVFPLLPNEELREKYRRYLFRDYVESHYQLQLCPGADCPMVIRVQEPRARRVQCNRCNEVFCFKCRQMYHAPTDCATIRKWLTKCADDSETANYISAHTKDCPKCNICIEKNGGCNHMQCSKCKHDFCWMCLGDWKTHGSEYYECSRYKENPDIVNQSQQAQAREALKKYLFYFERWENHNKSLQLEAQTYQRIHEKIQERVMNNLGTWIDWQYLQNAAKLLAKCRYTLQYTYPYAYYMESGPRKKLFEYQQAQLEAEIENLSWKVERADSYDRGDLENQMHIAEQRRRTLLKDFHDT
UniProt O60675: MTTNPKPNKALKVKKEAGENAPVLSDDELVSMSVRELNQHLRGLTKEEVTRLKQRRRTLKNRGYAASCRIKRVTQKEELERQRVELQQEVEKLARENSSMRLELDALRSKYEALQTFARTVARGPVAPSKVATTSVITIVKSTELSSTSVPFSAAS
UniProt O75151: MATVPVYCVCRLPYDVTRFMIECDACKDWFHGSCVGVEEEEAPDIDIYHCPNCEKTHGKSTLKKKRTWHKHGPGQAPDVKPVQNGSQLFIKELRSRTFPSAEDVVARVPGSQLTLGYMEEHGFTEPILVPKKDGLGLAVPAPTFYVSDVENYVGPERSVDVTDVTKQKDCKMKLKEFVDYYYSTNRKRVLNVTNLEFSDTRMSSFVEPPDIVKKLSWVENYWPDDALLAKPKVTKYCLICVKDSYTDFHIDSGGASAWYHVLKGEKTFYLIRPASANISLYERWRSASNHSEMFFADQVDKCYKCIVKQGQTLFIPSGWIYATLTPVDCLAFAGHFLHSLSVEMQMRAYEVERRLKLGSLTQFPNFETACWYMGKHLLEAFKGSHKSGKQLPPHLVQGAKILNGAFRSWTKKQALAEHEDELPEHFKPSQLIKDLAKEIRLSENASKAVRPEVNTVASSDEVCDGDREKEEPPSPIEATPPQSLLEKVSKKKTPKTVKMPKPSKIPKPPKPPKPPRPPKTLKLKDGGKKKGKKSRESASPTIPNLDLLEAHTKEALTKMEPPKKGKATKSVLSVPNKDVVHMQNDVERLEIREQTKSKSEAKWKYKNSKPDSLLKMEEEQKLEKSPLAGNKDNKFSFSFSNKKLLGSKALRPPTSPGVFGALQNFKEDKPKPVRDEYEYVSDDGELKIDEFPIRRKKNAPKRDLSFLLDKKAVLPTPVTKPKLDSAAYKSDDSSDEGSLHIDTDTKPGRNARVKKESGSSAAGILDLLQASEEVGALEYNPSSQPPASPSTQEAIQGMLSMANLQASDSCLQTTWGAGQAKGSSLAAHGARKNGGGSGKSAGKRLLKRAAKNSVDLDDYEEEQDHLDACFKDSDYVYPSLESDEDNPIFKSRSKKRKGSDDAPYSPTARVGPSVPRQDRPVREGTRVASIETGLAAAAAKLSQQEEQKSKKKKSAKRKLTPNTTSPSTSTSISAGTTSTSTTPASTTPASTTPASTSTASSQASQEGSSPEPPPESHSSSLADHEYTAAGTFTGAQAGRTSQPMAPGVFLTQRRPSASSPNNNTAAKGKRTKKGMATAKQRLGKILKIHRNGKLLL
UniProt O60307: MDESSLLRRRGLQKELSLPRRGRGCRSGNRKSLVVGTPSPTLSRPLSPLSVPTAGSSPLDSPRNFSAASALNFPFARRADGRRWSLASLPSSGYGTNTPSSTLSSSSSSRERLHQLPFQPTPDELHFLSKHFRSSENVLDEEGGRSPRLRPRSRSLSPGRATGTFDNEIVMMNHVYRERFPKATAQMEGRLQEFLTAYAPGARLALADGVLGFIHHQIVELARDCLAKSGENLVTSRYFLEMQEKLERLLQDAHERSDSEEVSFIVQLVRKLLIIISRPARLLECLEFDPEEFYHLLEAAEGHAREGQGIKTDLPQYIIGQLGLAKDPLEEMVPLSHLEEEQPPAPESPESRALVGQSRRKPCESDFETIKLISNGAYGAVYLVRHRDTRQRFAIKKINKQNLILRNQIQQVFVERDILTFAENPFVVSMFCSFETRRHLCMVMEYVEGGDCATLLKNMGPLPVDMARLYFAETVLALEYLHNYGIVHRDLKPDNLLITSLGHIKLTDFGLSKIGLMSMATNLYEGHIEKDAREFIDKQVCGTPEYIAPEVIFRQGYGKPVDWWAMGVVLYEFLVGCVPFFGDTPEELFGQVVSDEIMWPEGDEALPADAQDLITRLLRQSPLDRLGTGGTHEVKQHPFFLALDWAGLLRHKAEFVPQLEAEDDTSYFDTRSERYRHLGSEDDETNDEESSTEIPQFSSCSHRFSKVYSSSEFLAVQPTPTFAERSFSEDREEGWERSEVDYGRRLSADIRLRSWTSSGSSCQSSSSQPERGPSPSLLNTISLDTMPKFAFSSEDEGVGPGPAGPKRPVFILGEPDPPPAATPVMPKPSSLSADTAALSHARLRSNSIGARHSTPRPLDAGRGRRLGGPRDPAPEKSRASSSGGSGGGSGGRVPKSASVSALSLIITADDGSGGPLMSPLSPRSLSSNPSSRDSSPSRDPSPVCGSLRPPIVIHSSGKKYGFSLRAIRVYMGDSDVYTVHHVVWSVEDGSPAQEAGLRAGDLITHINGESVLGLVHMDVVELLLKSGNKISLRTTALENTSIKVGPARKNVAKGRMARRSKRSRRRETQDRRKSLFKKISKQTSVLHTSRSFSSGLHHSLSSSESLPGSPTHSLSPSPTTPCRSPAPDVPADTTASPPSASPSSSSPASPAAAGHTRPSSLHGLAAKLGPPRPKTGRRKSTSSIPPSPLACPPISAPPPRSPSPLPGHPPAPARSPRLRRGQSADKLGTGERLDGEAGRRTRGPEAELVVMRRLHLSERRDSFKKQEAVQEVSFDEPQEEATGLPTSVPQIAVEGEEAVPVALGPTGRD

Compound: Nc1ncnc2c1ncn2[C@@H]1O[C@H](COP(=O)(O)OP(=O)(O)NP(=O)(O)O)[C@@H](O)[C@H]1O [adenylyl imidodiphosphate]
Assay: NP40-soluble protein abundance relative to vehicle (solubility fold change) (ratio); higher = more soluble protein in presence of AMP-PNP
In short: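 Jurkat crude lysate (Dounce-homogenised) was treated with eight concentrations from 0.1 to 10 mM for 10 min at room temperature, then 3 min at 37 °C. It was solubilised with 0.8% NP40 and benzonase (60 min, 4 °C) and ultracentrifuged, and the supernatant was TMT-labelled for LC-MS/MS. Intensities were vsn-normalised, and the value is the fold change against the NP40-processed vehicle per replicate, from three independent experiments.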

Target	NP40-soluble protein abundance (concentration: 1mM)	NP40-soluble protein abundance (concentration: 2mM)	NP40-soluble protein abundance (concentration: 4mM)	NP40-soluble protein abundance (concentration: 6mM)	NP40-soluble protein abundance (concentration: 8mM)	NP40-soluble protein abundance (concentration: 10mM)
HEXIM1 (UniProt O94992)	1.05 ± 0.044	1.14 ± 0.075	1.11 ± 0.042	1.1 ± 0.032	1.14 ± 0.014	1.19 ± 0.03
UniProt O75909 and related entries	1.01 ± 0.024	1.08 ± 0.042	1.06 ± 0.04	1.04 ± 0.024	1.04 ± 0.047	1.06 ± 0.018
SMNDC1 (UniProt O75940)	1.07 ± 0.012	1.17 ± 0.1	1.15 ± 0.024	1.21 ± 0.036	1.24 ± 0.034	1.31 ± 0.08
MTA2 (UniProt O94776)	0.978 ± 0.026	0.953 ± 0.047	0.971 ± 0.05	1.01 ± 0.03	1.02 ± 0.048	1.05 ± 0.097
PFDN1 (UniProt O60925)	1 ± 0.038	1.02 ± 0.068	0.94 ± 0.042	0.95 ± 0.056	0.876 ± 0.026	0.908 ± 0.044
UniProt O95235 and related entries	1.05 ± 0.028	1.05 ± 0.026	1.09 ± 0.047	1.12 ± 0.044	1.12 ± 0.031	1.12 ± 0.06
SNX2 (UniProt O60749)	0.993 ± 0.033	0.998 ± 0.038	0.983 ± 0.018	0.99 ± 0.0069	0.966 ± 0.028	0.974 ± 0.015
MED26 (UniProt O95402)	1.03 ± 0.012	1.08 ± 0.03	1.03 ± 0.021	1.04 ± 0.04	1.04 ± 0.06	1.06 ± 0.042
UniProt O94763	1.05 ± 0.048	1.13 ± 0.06	1.05 ± 0.05	1.02 ± 0.1	0.962 ± 0.063	1.02 ± 0.059
UniProt O94964 and related entries	0.981 ± 0.044	0.977 ± 0.027	0.971 ± 0.039	0.953 ± 0.03	0.915 ± 0.021	0.934 ± 0.041
UniProt O75475 and related entries	1.08 ± 0.028	1.21 ± 0.042	1.24 ± 0.056	1.34 ± 0.057	1.34 ± 0.024	1.37 ± 0.023
UniProt O94826	1 ± 0.013	1.03 ± 0.031	0.986 ± 0.04	1.01 ± 0.013	0.986 ± 0.032	0.981 ± 0.047
PRPSAP2 (UniProt O60256)	0.91 ± 0.07	0.85 ± 0.12	0.935 ± 0.18	0.862 ± 0.13	0.877 ± 0.16	0.85 ± 0.16
ZFAND5 (UniProt O76080)	0.925 ± 0.011	0.988 ± 0.099	0.935 ± 0.026	0.916 ± 0.03	0.904 ± 0.018	0.944 ± 0.02
SASH3 (UniProt O75995)	1.02 ± 0.021	1.05 ± 0.052	1.01 ± 0.025	0.979 ± 0.013	0.963 ± 0.033	0.961 ± 0.026
UniProt O75582 and related entries	1 ± 0.047	0.966 ± 0.065	1.02 ± 0.057	1 ± 0.025	1.006 ± 0.0043	0.9977 ± 0.005
GRAP2 (UniProt O75791)	0.989 ± 0.027	0.899 ± 0.073	0.984 ± 0.027	0.942 ± 0.03	0.997 ± 0.013	0.944 ± 0.028
UniProt O60287 and related entries	1.01 ± 0.02	1.03 ± 0.039	1.07 ± 0.043	1.14 ± 0.058	1.19 ± 0.059	1.22 ± 0.076
NDUFS3 (UniProt O75489)	1.01 ± 0.048	0.972 ± 0.077	0.988 ± 0.08	0.926 ± 0.074	0.961 ± 0.089	0.943 ± 0.1
UniProt O75093 and related entries	1.01 ± 0.035	1.011 ± 0.0054	1.04 ± 0.048	1.07 ± 0.035	1.08 ± 0.035	1.13 ± 0.059

Target	NP40-soluble protein abundance (concentration: 1mM)	NP40-soluble protein abundance (concentration: 2mM)	NP40-soluble protein abundance (concentration: 4mM)	NP40-soluble protein abundance (concentration: 6mM)	NP40-soluble protein abundance (concentration: 8mM)	NP40-soluble protein abundance (concentration: 10mM)
N4BP1 (UniProt O75113)	1.01 ± 0.014	1.02 ± 0.039	1.02 ± 0.032	0.979 ± 0.027	0.96 ± 0.012	0.954 ± 0.028
UniProt O60825 and related entries	1.03 ± 0.024	0.978 ± 0.023	1.04 ± 0.032	1.02 ± 0.043	1.069 ± 0.0027	1.02 ± 0.016
UGDH (UniProt O60701)	0.985 ± 0.029	0.939 ± 0.059	0.997 ± 0.025	0.984 ± 0.032	0.981 ± 0.022	0.9808 ± 0.0012
UniProt O95167 and related entries	1.01 ± 0.018	1.03 ± 0.022	1.01 ± 0.016	0.9975 ± 0.0035	0.99 ± 0.013	1.027 ± 0.0014
UniProt O60645 and related entries	1.03 ± 0.036	0.997 ± 0.041	1.025 ± 0.0081	1.01 ± 0.015	0.985 ± 0.017	0.998 ± 0.018
TACC1 (UniProt O75410)	1.04 ± 0.013	1.07 ± 0.066	1.03 ± 0.034	0.985 ± 0.02	0.9658 ± 0.0052	0.97 ± 0.022
UniProt O60664 and related entries	0.972 ± 0.0099	1.05 ± 0.11	0.949 ± 0.039	1.04 ± 0.052	0.97 ± 0.035	1.02 ± 0.061
UniProt O60763 and related entries	1.01 ± 0.015	1.03 ± 0.02	0.982 ± 0.016	0.9911 ± 0.0093	0.959 ± 0.011	0.975 ± 0.03
UniProt O43933 and related entries	1.15 ± 0.1	1.1 ± 0.12	1.12 ± 0.067	1.1 ± 0.085	1.1 ± 0.055	1.1 ± 0.082
XYLB (UniProt O75191)	1.02 ± 0.027	0.984 ± 0.036	1.02 ± 0.029	0.995 ± 0.039	0.97 ± 0.032	0.99 ± 0.025
MRPS14 (UniProt O60783)	1 ± 0.087	0.9326 ± 0.0016	0.939 ± 0.014	0.929 ± 0.021	0.936 ± 0.082	0.92 ± 0.066
UniProt O60268 and related entries	0.998 ± 0.063	1.03 ± 0.04	1.01 ± 0.057	1.02 ± 0.093	0.994 ± 0.042	1.02 ± 0.066
UniProt O75600 and related entries	0.96 ± 0.018	0.917 ± 0.072	0.9873 ± 0.0089	0.9642 ± 0.0082	0.98 ± 0.028	0.958 ± 0.029
UniProt O75323	0.989 ± 0.024	0.925 ± 0.076	0.9452 ± 0.0027	0.9553 ± 0.0082	0.978 ± 0.014	0.93 ± 0.0087
UniProt O95251 and related entries	1.11 ± 0.031	1.17 ± 0.06	1.18 ± 0.063	1.2 ± 0.073	1.25 ± 0.077	1.36 ± 0.088
E2F6 (UniProt O75461)	0.986 ± 0.02	0.913 ± 0.063	0.977 ± 0.012	0.921 ± 0.03	0.949 ± 0.036	0.919 ± 0.039
UniProt O75592 and related entries	0.993 ± 0.014	0.997 ± 0.037	1 ± 0.028	0.994 ± 0.033	0.996 ± 0.019	1.02 ± 0.017
UniProt O95297 and related entries	0.937 ± 0.034	0.992 ± 0.086	0.954 ± 0.033	1 ± 0.049	0.957 ± 0.026	0.998 ± 0.068
UniProt O60566 and related entries	1.01 ± 0.015	0.988 ± 0.064	0.986 ± 0.05	0.944 ± 0.022	0.945 ± 0.029	0.922 ± 0.029
NDUFS6 (UniProt O75380)	0.971 ± 0.037	1.03 ± 0.02	0.913 ± 0.017	0.954 ± 0.06	0.899 ± 0.052	0.946 ± 0.061

Target	NP40-soluble protein abundance (concentration: 1mM)	NP40-soluble protein abundance (concentration: 2mM)	NP40-soluble protein abundance (concentration: 4mM)	NP40-soluble protein abundance (concentration: 6mM)	NP40-soluble protein abundance (concentration: 8mM)	NP40-soluble protein abundance (concentration: 10mM)
PPM1B (UniProt O75688)	0.991 ± 0.032	0.991 ± 0.016	0.982 ± 0.038	0.966 ± 0.0059	0.957 ± 0.032	0.9644 ± 0.0034
UniProt O75037 and related entries	1.03 ± 0.042	1.06 ± 0.018	1.04 ± 0.05	1.01 ± 0.04	1 ± 0.032	1.04 ± 0.052
CIAO1 (UniProt O76071)	1.02 ± 0.021	0.986 ± 0.024	1.01 ± 0.053	1.01 ± 0.044	1 ± 0.021	0.978 ± 0.028
NMT2 (UniProt O60551)	1.01 ± 0.02	1.07 ± 0.047	1.07 ± 0.04	1.09 ± 0.043	1.14 ± 0.054	1.17 ± 0.064
CPSF4 (UniProt O95639)	1.01 ± 0.034	0.996 ± 0.03	1.02 ± 0.074	1.03 ± 0.049	1.08 ± 0.072	1.11 ± 0.13
ARIH2 (UniProt O95376)	1.02 ± 0.038	1.03 ± 0.022	1.04 ± 0.051	0.983 ± 0.026	1.01 ± 0.017	1.01 ± 0.042
MAFK (UniProt O60675)	0.97 ± 0.037	1.01 ± 0.06	0.978 ± 0.036	1.01 ± 0.046	0.993 ± 0.025	1.02 ± 0.036
RP2 (UniProt O75695)	0.989 ± 0.044	0.9689 ± 0.0046	0.996 ± 0.044	0.952 ± 0.022	0.967 ± 0.032	0.94 ± 0.017
UniProt O75400 and related entries	1.03 ± 0.039	1.005 ± 0.0091	0.965 ± 0.041	1.01 ± 0.017	1.03 ± 0.015	1.1 ± 0.026
ZBTB11 (UniProt O95625)	1.006 ± 0.006	1.02 ± 0.064	0.9913 ± 0.0086	0.9761 ± 0.0067	0.979 ± 0.045	0.974 ± 0.017
UniProt O95671 and related entries	1 ± 0.022	0.964 ± 0.029	1.02 ± 0.047	1.03 ± 0.06	1.04 ± 0.025	1.01 ± 0.042
DNAJA2 (UniProt O60884)	0.963 ± 0.035	0.966 ± 0.023	0.908 ± 0.032	0.904 ± 0.046	0.88 ± 0.04	0.895 ± 0.056
UniProt O94874	1.02 ± 0.014	1.02 ± 0.022	1.07 ± 0.028	1.09 ± 0.025	1.08 ± 0.015	1.1 ± 0.011
SMC2 (UniProt O95347)	0.983 ± 0.02	0.9867 ± 0.008	0.967 ± 0.014	0.967 ± 0.029	0.946 ± 0.018	0.957 ± 0.027
PALM (UniProt O75781)	1.02 ± 0.028	1.09 ± 0.12	1 ± 0.018	0.999 ± 0.042	0.979 ± 0.02	0.982 ± 0.004
UniProt O94966-6|O94966-7	0.976 ± 0.019	0.945 ± 0.051	0.978 ± 0.013	0.963 ± 0.017	0.969 ± 0.031	0.946 ± 0.025
LETM1 (UniProt O95202)	1.02 ± 0.017	1.08 ± 0.077	1.02 ± 0.036	1.011 ± 0.0039	0.989 ± 0.011	0.994 ± 0.04
PHF2 (UniProt O75151)	1.03 ± 0.011	1.09 ± 0.042	1.09 ± 0.044	1.11 ± 0.044	1.14 ± 0.051	1.27 ± 0.079
MAST3 (UniProt O60307)	1.01 ± 0.022	0.978 ± 0.011	0.9881 ± 0.00048	1.002 ± 0.01	1.016 ± 0.00092	1.02 ± 0.00096
COQ9 (UniProt O75208)	0.957 ± 0.023	0.98 ± 0.027	0.939 ± 0.045	0.985 ± 0.046	0.977 ± 0.11	0.937 ± 0.11

5 records drawn at random from those above:
Target	NP40-soluble protein abundance (concentration: 1mM)	NP40-soluble protein abundance (concentration: 2mM)	NP40-soluble protein abundance (concentration: 4mM)	NP40-soluble protein abundance (concentration: 6mM)	NP40-soluble protein abundance (concentration: 8mM)	NP40-soluble protein abundance (concentration: 10mM)
UniProt O75400 and related entries	1.03 ± 0.039	1.005 ± 0.0091	0.965 ± 0.041	1.01 ± 0.017	1.03 ± 0.015	1.1 ± 0.026
COQ9 (UniProt O75208)	0.957 ± 0.023	0.98 ± 0.027	0.939 ± 0.045	0.985 ± 0.046	0.977 ± 0.11	0.937 ± 0.11
PPM1B (UniProt O75688)	0.991 ± 0.032	0.991 ± 0.016	0.982 ± 0.038	0.966 ± 0.0059	0.957 ± 0.032	0.9644 ± 0.0034
MAFK (UniProt O60675)	0.97 ± 0.037	1.01 ± 0.06	0.978 ± 0.036	1.01 ± 0.046	0.993 ± 0.025	1.02 ± 0.036
UniProt O94966-6|O94966-7	0.976 ± 0.019	0.945 ± 0.051	0.978 ± 0.013	0.963 ± 0.017	0.969 ± 0.031	0.946 ± 0.025
